The values below come from patent US7776833B2, “Use of cyclic bioisosters of purine system derivatives for treating diseases produced by disorders of niterergic and dopaminergic systems” (priority 2003, dated 2010).

Each structure is given as a SMILES string.

The assay deals with nitric oxide synthase (NOS). Put plainly: Nitric oxide synthase activity in brain regions, radiometric [3H]L-citrulline method. The format is in vivo, Wistar rats. The following applies: Group No. 2 (morphine). On the procedure: After the above experiments the rat brains were isolated and immediately placed in the ice cold 0.9% solution of sodium chloride. After cooling the following structures were isolated from the brain: cerebral cortex, hippocampus, mesencephalon, striatum, brainstem, hypothalamus and cerebellum. The isolated tissue was homogenized in a Potter S homogenizer for 3 minutes at 1500 rpm in 4-5 volumes of 20 mM HEPES (pH 7.5) at 4° C. […]
The activity of nitric oxide synthase (NOS) was determined using a radiometric method by the rate of L-citrulline accumulation in a reaction of [^3H] […]
The reaction was initiated by adding brain supernatant in the reaction medium containing 2 μCi/ml of [3H] […] After the sorption the radioactivity of the samples was determined on a scintillation counter SL-4000 (“Intertechnique”). The activity of Ca^2+-dependent and Ca^2+-independent NOS isoforms was determined by the difference of rates of [^3H]L-citrulline formation in three parallel samples containing 2 mM EDTA (Ca^2+ chelator), 2 mM EDTA+2 mM L-NAME (inhibitor all NOS isoforms) or without inhibitors. […]
The content of protein in the samples was determined by the Bradford method (Bradford M. M. A rapid and sensitive method for quantitation of microgram quantities of protein using the principle of protein binding . Anal. Biochem., 1976, V. 72, p. 248-254) using Coumassi dye. […]

Turning to `CN1CC[C@]23c4c5ccc(O)c4O[C@H]2[C@@H](O)C=C[C@H]3[C@H]1C5.Cl` [morphine, morphine hydrochloride, reference compound], the “Activity of NOS, hippocampus” value is listed as 3.10 ± 0.20 nmol/min/mg of protein and the “Activity of NOS, striatum” value is 1.19 ± 0.14 nmol/min/mg of protein.
